Experimental data reported in paper doi:10.1101/2024.12.01.626218.
Read-outs that look alike come from different tables or passages of the source. No constants are given. Whether binding was seen depends on the method and setting. Binding seen in cells or lysates may run through a third protein. These calls come from enrichment with a bait or labelling near it, and not all partners need be listed.

Sequences of proteins named here, by UniProt entry; tags and fusion partners are left off.
UniProt Q8VIG6: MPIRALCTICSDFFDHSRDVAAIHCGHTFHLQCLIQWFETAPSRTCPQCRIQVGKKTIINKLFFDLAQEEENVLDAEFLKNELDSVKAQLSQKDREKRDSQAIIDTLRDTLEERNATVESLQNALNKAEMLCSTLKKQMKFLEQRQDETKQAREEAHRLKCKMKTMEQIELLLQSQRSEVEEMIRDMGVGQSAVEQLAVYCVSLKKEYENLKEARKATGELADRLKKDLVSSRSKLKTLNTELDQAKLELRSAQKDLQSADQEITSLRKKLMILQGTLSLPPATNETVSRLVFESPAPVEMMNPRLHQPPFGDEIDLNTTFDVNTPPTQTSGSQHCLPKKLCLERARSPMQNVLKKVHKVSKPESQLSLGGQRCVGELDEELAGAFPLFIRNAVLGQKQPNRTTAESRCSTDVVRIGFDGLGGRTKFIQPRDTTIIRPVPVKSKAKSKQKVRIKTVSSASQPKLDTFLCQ
UniProt Q3UI43: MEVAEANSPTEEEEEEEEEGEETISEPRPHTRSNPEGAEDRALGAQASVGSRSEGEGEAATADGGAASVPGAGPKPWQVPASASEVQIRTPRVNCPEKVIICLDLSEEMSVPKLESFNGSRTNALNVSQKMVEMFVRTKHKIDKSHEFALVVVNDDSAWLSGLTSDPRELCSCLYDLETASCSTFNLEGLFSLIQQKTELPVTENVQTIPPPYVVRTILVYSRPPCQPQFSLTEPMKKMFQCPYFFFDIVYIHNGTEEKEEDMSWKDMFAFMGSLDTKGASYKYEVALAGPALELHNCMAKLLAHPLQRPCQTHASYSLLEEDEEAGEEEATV
UniProt Q8K3W0: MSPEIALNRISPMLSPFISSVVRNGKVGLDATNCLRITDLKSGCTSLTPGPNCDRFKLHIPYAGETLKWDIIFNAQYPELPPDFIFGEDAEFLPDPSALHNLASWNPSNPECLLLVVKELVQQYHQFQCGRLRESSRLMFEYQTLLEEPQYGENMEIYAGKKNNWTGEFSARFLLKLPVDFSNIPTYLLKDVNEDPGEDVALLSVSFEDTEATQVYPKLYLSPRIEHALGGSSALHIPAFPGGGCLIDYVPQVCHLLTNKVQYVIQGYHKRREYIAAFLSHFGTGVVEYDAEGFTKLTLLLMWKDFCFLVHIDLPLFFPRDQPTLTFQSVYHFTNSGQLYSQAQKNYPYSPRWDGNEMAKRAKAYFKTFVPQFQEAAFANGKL
UniProt P46737: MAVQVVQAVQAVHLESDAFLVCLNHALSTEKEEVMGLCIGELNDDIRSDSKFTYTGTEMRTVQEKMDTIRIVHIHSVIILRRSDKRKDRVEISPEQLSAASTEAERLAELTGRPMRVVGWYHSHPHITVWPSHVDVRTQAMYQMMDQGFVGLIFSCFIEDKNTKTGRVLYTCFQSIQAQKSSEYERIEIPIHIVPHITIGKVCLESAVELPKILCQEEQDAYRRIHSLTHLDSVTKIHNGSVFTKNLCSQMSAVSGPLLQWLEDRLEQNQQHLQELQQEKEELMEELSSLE

Legend:
Experiment in all cases: affinity purification with mass spectrometry
[1] = biological target: TRAIP-i5FLAG (mouse) (UniProt Q8VIG6)
[2] = biological target: TRAIP-5FLAG (mouse) (UniProt Q8VIG6)
[3] = biological target: TRAIP-i5FLAG (mouse) (UniProt Q8VIG6); remark: listed apart in the source
[4] = biological target: TRAIP-5FLAG (mouse) (UniProt Q8VIG6); remark: listed apart in the source

Molecule: BABAM1 (from UniProt Q3UI43 1-333)
- binding [1]: binds
- binding [2]: binds

Molecule: BABAM2 (from UniProt Q8K3W0 1-383)
- binding [1]: binds
- binding [2]: binds

Molecule: BRCC36 (from UniProt P46737 1-291)
- binding [1]: binds
- binding [2]: binds

B1: TTF2 (Transcription Termination Factor 2) (enzyme, UniProt Q5NC05 1-1138)
chain: MDLVKCPEHGDACFLKTGVRDGPNKGKSFYVCRTNTCGFVQATDIPVSHCLLHEEFVVELQGLFLPQDKKEWRLFFRCARTKAEGKQWCGNVPWRQDPNPKELSVTSKPQQPSESQLHSPSQPRNPFRVLNKNQKTLERKQFVEEGERKTADKKLRENNEQLLDQRKEQKPKSNSRMEKDPSSDLVATRQSGGDREEQEKSKFQPKTKKAEGMASKQGHGEVLQGIPKGPHMSESESRGVPNKPETLREKETQLLVPSVPGQNPESKVQKEGHVSREPLKNGEAPSAQVTQRGLAQGPLQGPSKTWRPVPEAPAAPELCSGMAHHATSSSEDSEDDGVSSRPGSPLLFDSTVDSQKKGSLQHSDQSVQRQMPAASGVSKKGDSSDPAAQRANLTTQLKQKKGTLAAVNIQALPDKGEKLLKQIQALEDALSALALSPEQGTKEKCSAQEPEQSNITKAAAAPLHLVPPQPLPRPLIQPASSLGLKAGRQETPEGASQCSGGHMNQHHLYNVWKITSEAIDELHRSLKSCPGETAVAEDPAGLKVPLLLHQKQALAWLLWRESQKPQGGILADDMGLGKTLTMIALILTKKNQQKSKEKERSEPVTWLSKNDSSVFTSSGTLIVCPASLIHHWKNEVEKRVTSNRLRIYLYHGPNRSRHAKVLSTYDIVITTYSLLAKEIPTTKQEGEVPGANLSVEGTSAPLLQVVWARIILDEAHNVKNPRVQTSIAVCKLQAQARWAVTGTPIQNNLLDMYSLMKFLRCSPFDEFSLWKSQVDNGSMKGGERLSILTKSLLLRRTKDQLDSTGKPLVALPARRCQLHRLKLSEDERAVYDIFLARSRSALQSYLKRQEGRGSHHGRSPDNPFSRVAQEFGSSVSQGCPAADSQRPSTVHVLSQLLRLRQCCCHLSLLKSALDPTELESEGLVLSLEEQLSALTLSKVDVSEPSPTVSLNGTCFKAELFDDTRRSTKVSSLLAELEAIQKGPGSQKSVIVSQWTSMLQVVALHLKKNRLTYATIDGSVNPKQRMDLVEAFNHSQGPQVMLISLLAGGVGLNLTGGNHLFLLDMHWNPSLEDQACDRIYRVGQKKDVVIHRFVCEGTVEEKILQLQEKKKDLAKQVLSGSEGPVTKLTLADLKILFGI
- binding [3]: binds
- binding [4]: binds

B2: RAP80 (protein, UniProt Q5U5Q9 1-727)
chain: MPRRKKKIKEASESQNLEKKDLETSSCVSIKKKRRLEDLLIVISDSDGEETKEENGLQKTKTKQSNRSKCLAKRKVAHMSEEEQFALALKMSEQEAREVNNQEEKEEELLRKAIAESLNSCWSSAASATRSRPLAAELSSHSHQENTKDSGTTEGVWQLVPPSLCKGSHVSQGNEAEQRKEPWDHNENTEEEPVSGSSGSWDQSSQPVFENENVKCFDRCTGHLAEHTQCGKPQESTGSGYAFSKAVQGRGDTSRQCLPIPADTKGLQDTGGTVHYYWGIPFCPAGVDPNQYTNVILCQLEVYQKSLKMAQRQLVKKRGFGEPVLPRPPFLIQNECGQEDQTSDKNEGISEDMGDEAKEERQESRASVWHSETKDFQKSPIKSLKQKLLLEEEPTTSRGQSSQGLFVEETSEEGLKSSEGDNSVPTTQSIAALTSKRSLVLMPESSAEEITVCPETQLSFLEPLDLNREDSPDSRELPIEVRMAVGDKQVANREDCMKENPPPAVSSSTRVSCPLCNQDFPPTKIEQHAMYCNGLMEQETVLTRRRREAKNKSDGRTAAQPALDANRKEKCYLCKSLVPLGEYQCHVEACLQLAKVDREDGIEGTRRPRVCAPVEGKQQQRLKKSKDKGHSQGRLLSLLEQSEHRTTGVEKKPKYSEVRTFRMPSPEVEEASCSREMQSTLSQLNLNESPIKSFVPVSEATNCLVDFKEQFAFRSRTKSGRGRRRKS
- binding [3]: binds
- binding [4]: binds

B3: ABRAXAS1 (protein, UniProt Q8BPZ8 1-407)
chain: MEGESTLGVLSGFVLGALTFHHLNTDSDTEGFLLGEMKGEAKNSITDSQMDNVKVVYTIDIQKYIPCYRLFSFYNSLGEVNEHALKKVLSNVRKTVVGWYKFRRHSDQIMTFREQLLHRNLQTHLSSPELVFLLLTPSITTESCSTHCLEHALYKPQRGLFHRVPLVVTNLGMSDQLGYKTEPASCTSTVFSRAVRTHSSQFFNEDGSLKEVHKINEMYAAVQEELKSICQKVEQSEREVEKLLMDVNQLKEVRRTQQARATGAGEKNVQRNPQENILLCQALRTFFPESEVLHSCVISLKNRHISPSGCNVNHHVDVVDQLTLMVEYVYSPEASPVPTAQLRKRKALDTHDQGSVKRPRLLETESRPSVAASRSRHQDKASSSSLDIDIEMGSPEDDADYPRSPTF
- binding [3]: binds
- binding [4]: binds
